Library screening results

The chains behind the UniProt entries cited, without tags or fusion partners.
UniProt E9BF75, entry or part of it: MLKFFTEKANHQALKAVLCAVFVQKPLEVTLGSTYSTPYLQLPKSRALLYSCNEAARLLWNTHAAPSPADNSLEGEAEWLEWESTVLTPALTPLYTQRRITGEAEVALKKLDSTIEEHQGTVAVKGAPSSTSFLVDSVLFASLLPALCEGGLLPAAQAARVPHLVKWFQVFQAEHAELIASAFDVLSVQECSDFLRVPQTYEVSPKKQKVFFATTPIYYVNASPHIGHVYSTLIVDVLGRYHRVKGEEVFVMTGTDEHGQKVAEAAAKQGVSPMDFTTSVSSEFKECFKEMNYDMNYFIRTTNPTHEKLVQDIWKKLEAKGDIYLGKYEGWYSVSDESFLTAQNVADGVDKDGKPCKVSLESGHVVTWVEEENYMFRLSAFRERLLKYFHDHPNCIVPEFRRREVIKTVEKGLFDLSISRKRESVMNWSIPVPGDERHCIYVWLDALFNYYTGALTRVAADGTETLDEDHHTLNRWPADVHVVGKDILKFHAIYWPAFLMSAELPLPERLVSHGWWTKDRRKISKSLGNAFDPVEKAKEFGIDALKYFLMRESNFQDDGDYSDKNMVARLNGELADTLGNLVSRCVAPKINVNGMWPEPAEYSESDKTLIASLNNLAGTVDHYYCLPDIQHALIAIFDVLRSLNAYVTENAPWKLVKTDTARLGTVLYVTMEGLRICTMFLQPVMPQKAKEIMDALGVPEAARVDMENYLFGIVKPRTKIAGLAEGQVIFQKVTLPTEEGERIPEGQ

Source: ChEMBL document CHEMBL3988442, “University of Dundee, Small-Polar-MMV Screening Library” (2021).

Mtb heat-shock: 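Assay on Mycobacterium tuberculosis, filed only as a heat shock assay from Cornell; the read-out is not stated. The concentration is filed as 10 mM, unlikely as a test dose, so the dose is not known. The record gives no direction; compounds that gave an IC50 in retests scored well above the rest, so higher reads as stronger inhibition. Of about 69,000 compounds tested this way, about 930 (1.4%) reached 50% or more in at least one test.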
LdMetRS: 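Primary screen of methionyl-tRNA synthetase; the read-out is not stated. Target: Methionyl-tRNA synthetase (putative), Leishmania donovani (UniProt E9BF75). The test concentration is not given. Values are per cent inhibition. Size under these conditions: about 68,000 compounds, about 24 of them at 50% or above in at least one test.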
Mtb growth Cornell: 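Whole-cell assay for inhibitors of Mycobacterium tuberculosis growth, labelled Cornell in the record; the read-out is not stated. The concentration is filed as 10 mM, unlikely as a test dose, so the dose is not known. The record gives no direction; compounds strong in two other growth screens of this library score well above the rest, so higher reads as stronger inhibition. Of about 53,000 compounds tested this way, about 900 (1.7%) reached 50% or more in at least one test.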

Results are percentages, as filed.
The controls that fix the scale are not given in the record; negative values are as filed.
The compounds are a random part of those screened.
A dash means the value is not listed here; it may have been measured.

compound | Mtb heat-shock | LdMetRS | Mtb growth Cornell
CCCN1CC2(CCN(C)CC2)CC1C(=O)NCCn1ccc(C)n1 (stereo not given) | -0.7529 | 12.24 | 18.44
COC1CCN(C(=O)CCc2c(C)nc3ccnn3c2C)CC1 | -33.02 | 13.39 | 4.788
COc1cccc([C@@H](C)n2ccnc2-c2cc3n(n2)CCNC3)c1 | -5.22 | 11.8 | -
Cn1ccc(C(=O)N2C[C@@H]3OCCN(c4ncccn4)[C@@H]3C2)n1 | - | 13.42 | -
CCN(CC)C(=O)CN(C)C(=O)c1cccn1CCc1ccccc1 | -23.92 | 12.03 | -
COC(C)C(=O)Nc1cc(C(=O)N2CCSCC2)ccc1C (stereo not given) | 4.735 | 11.24 | -2.48
[H][C@]12CC[C@]([H])(CN(Cc3cscn3)C1)N(C(=O)c1cccc(OC)c1)C2 | -27.99 | - | -33.76
CNc1cc2c(nn1)CCN(C(=O)c1cccc3c1OCCO3)C2 | 7.859 | 21.59 | -
CCOC(=O)CCNC(=O)N1CCCC(CNC(=O)c2cccs2)C1 (stereo not given) | -11.3 | 16.45 | 19.42
CCc1nnsc1C(=O)N1CCCN(Cc2nccn2C)CC1 | -11.71 | 6.25 | -
CC(NCc1cc2cc(F)ccc2o1)c1nnc2n1CCCC2 (stereo not given) | 13.1 | - | -
Cc1nc(N2CCC(O)(c3ccccc3)CC2)c2c(C)nn(C)c2n1 | 12.95 | 16.09 | 0.9163
CNC(=O)CN1CCOCC2(C1)CN(C(=O)C(C)C)CCO2.O=C(O)C(F)(F)F (stereo not given) | 2.563 | - | 5.907
COc1ccc(-c2nnsc2C(=O)N2CCSCC2)cc1 | -6.997 | 13.4 | 37.1
CCOC(C)C(=O)NS(=O)(=O)c1cccc2cc(C)cnc12 (stereo not given) | 11.06 | 12.9 | -1.614
c1cncc(COc2ccccc2CNC2CCc3ncnn3C2)c1 (stereo not given) | 103.3 | 3.741 | -
CNS(=O)(=O)c1cccc(C(C)NCc2ccc(C)o2)c1 (stereo not given) | -1.759 | 9.89 | 14.24
c1ccc(-c2ncc3c(n2)C2(CCN(CC4CC4)C2)COC3)cc1 (stereo not given) | - | 5.376 | -
CN(CCC(F)(F)F)c1nc2ccccc2c(=O)[nH]1 | 6.01 | 0 | -4.598
O=C(c1cc(=O)c(OCc2ccccc2F)co1)N1CCCC1 | 7.448 | 5.248 | 24.64
CCN(Cc1ccncc1)C(=O)c1cn(CCCc2ccccc2)nn1 | 0.8077 | 7.904 | -
Cn1cnc2c1C(COCc1ccccc1)N(Cc1ccncc1)CC2 (stereo not given) | - | 17.99 | -
CNS(=O)(=O)CC(=O)NC(c1cc(C)sc1C)C(C)C (stereo not given) | 0.7236 | 11.49 | 21
CN(C)C(=O)CO[C@H]1CO[C@@]2(CCN(S(C)(=O)=O)C2)C1 | 10.56 | 17.37 | -46.05
O=C(Cn1nc2c(cc1=O)CCCC2)NC(Cc1ccccc1)C(=O)O (stereo not given) | 1.834 | 6.857 | -
Cc1ccc(C)c(NC(=O)Cn2nc(C)c(C#N)c2N)c1 | -18.7 | 12.2 | 7.361
CCOCC(=O)NCC1(NC(C)c2ccccc2)CCOCC1 (stereo not given) | -4.329 | 9.938 | -
COc1cccc(C(=O)N2CCC3(CCC(=O)N(C(C)C)C3)CC2)c1C | 11.55 | 13.04 | -32.36
COCC(=O)N1CCC2(CC1)CC(COC)N(Cc1ccccn1)C2 (stereo not given) | - | 20.26 | -
CCc1nc(C)c(C(=O)NCCN2CCN(C(C)=O)CC2)s1 | 19.45 | 17.77 | 19.57
COc1ccc(C(=O)NCCCOC(C)c2ccccc2)c(OC)c1 (stereo not given) | -6.116 | 9.051 | -
[H][C@]12CC[C@]([H])(CN(Cc3nnc(-c4ccccc4)o3)C1)N(CCOC)C2=O | 0.9802 | - | 10.1
Cc1ccc(N2CCCC(NCC(=O)Nc3cc(C)no3)C2)nn1 (stereo not given) | -5.542 | 12.5 | -
CC(Cn1cccn1)NC(=O)NCc1ccc(S(C)(=O)=O)cc1 (stereo not given) | -10.29 | 5.525 | -
Cc1oncc1C(=O)N1CCC2(C1)CN(c1cccnc1)C(=O)CN2C (stereo not given) | 18.78 | 16.32 | 22.54
O=C(c1ccoc1)N1CCOC2(COCCN(c3ncccn3)C2)C1 (stereo not given) | - | 11.54 | -
CNC(=O)[C@@H]1[C@@H](c2ccccc2)CN2CCN(Cc3cccs3)C[C@H]12 | - | 11.78 | -
[H][C@@]12OCCN(C(=O)C3CCOCC3)[C@@]1([H])CC[C@H]2OCC | 13.37 | - | 4.239
O=C(NCCn1nc2ccccn2c1=O)c1sccc1-c1ccccc1 | -20.19 | 16.19 | -
O=C(O)C(F)(F)F.O=C(O)C(F)(F)F.c1csc(CN2CCC3(CC2)CCN(CC2CC2)CC3)n1 | -18.7 | - | -43.47
O=C(N[C@@H]1CCN(C(=O)c2ccc(F)cc2Cl)C[C@H]1O)c1ccccn1 | -12.26 | 11.17 | -6.779
CN(C)CCN1CCC2(CCN(C(=O)c3ccc(F)cc3)CC2)C1=O | - | 11.78 | -
Cc1cccc2c1OCCCC2NCc1nccn1Cc1ccccc1 (stereo not given) | 104.4 | 5.797 | 21.59
CCC(=O)Nc1ccc2c(c1)C1(CCOCC1)CN2CCOC | - | 9.351 | -
NC(=O)c1cccc(CCNCc2cccs2)c1 | -8.679 | 8.564 | -
Cl.O=C(NCCn1nc(C2CCNC2)c2cccnc21)c1ccccn1 (stereo not given) | -6.841 | - | -9.907
CSc1ncn(-c2nc(NC3CC3)nc(N(C)C)n2)n1 | 5.376 | 16.7 | 46.79
CC(=O)NCC(=O)N1CCC2(CC1)NC(=O)CC2c1cccnc1.O=C(O)C(F)(F)F (stereo not given) | -11.23 | - | -2.319
O=C(c1cccnc1)N1CCn2nnc(COc3ccccn3)c2C1 | - | 5.333 | -
COCc1nc2nc(O)c3c(n2n1)NC(=O)CC3c1ccc(SC)cc1 (stereo not given) | 3.269 | 11.18 | 13.84
COCCNC(=O)NCCn1nc(C(F)(F)F)n(C)c1=O | 6.63 | 14.34 | 3.684
CNC(=O)c1cc2c(nc1NCC(C)C)CCN(c1ccncn1)CC2 | - | 4.323 | -
CC(C)CCC(=O)N1CCN(c2ncnc3nc(N)ccc23)CC1 | 4.828 | 16.94 | 39.52
COc1ccc(CN(C)CC(O)COCc2ccccc2Cl)c(OC)c1.O=C(O)C(=O)O (stereo not given) | 10.76 | - | 20.9
CCN1CCn2c(C)cnc2C12CCN(C(=O)Cc1ccccc1)CC2 | - | 6.09 | -
CN(C)C(=O)N1CC2(CCNCC2)c2cc(Cl)ccc21 | - | 13.02 | -
CC(=O)c1c[nH]c(C(=O)N2CCN(C(C(N)=O)c3ccccc3)CC2)c1 (stereo not given) | 24.19 | 6.028 | -25.46
C[C@H]1C[C@H]2CN(C(=O)c3ccncn3)CC[C@H]2O1 | - | 13.33 | -
Cc1ccc(NCCCc2c(C)noc2C)nn1 | 6.826 | 9.115 | 33.48
CCOC[C@H]1CC[C@H]2[C@H](CCN2C(=O)c2cnccn2)O1 | - | 3.553 | -
CS(=O)(=O)c1nccn1Cc1ccc(C(N)=O)cc1 | 2.892 | 15.28 | 1.675

Repeated from the top, 7 entries:

| compound | Mtb heat-shock | LdMetRS | Mtb growth Cornell |
|---|---|---|---|
| `CCCN1CC2(CCN(C)CC2)CC1C(=O)NCCn1ccc(C)n1` (stereo not given) | -0.7529 | 12.24 | 18.44 |
| `COC1CCN(C(=O)CCc2c(C)nc3ccnn3c2C)CC1` | -33.02 | 13.39 | 4.788 |
| `COc1cccc([C@@H](C)n2ccnc2-c2cc3n(n2)CCNC3)c1` | -5.22 | 11.8 | - |
| `Cn1ccc(C(=O)N2C[C@@H]3OCCN(c4ncccn4)[C@@H]3C2)n1` | - | 13.42 | - |
| `CCN(CC)C(=O)CN(C)C(=O)c1cccn1CCc1ccccc1` | -23.92 | 12.03 | - |
| `COC(C)C(=O)Nc1cc(C(=O)N2CCSCC2)ccc1C` (stereo not given) | 4.735 | 11.24 | -2.48 |
| `[H][C@]12CC[C@]([H])(CN(Cc3cscn3)C1)N(C(=O)c1cccc(OC)c1)C2` | -27.99 | - | -33.76 |